# Further values from the same series stand in other lists.
# Test system: gene expression in heart tissue
# Test: Genome-wide gene expression in heart tissue of old mice fed a resveratrol-supplemented diet (Affymetrix Mouse Genome 430 2.0 array)
# Type: in vivo
structure (smiles),measurement,setting,value
"Oc1ccc(/C=C/c2cc(O)cc(O)c2)cc1 [resveratrol, 3,4′,5-Trihydroxy-trans-stilbene]",Effect of resveratrol on changeing gene expression from old to young profile,1429859_a_at ADP-ribosylation factor-like 2 binding protein,60-70%
same,Effect of resveratrol on changeing gene expression from old to young profile,1430332_a_at beta-glucuronidase,80-90%
same,Effect of resveratrol on changeing gene expression from old to young profile,1430421_a_at hypothetical protein MGC18837,90-100%
same,Effect of resveratrol on changeing gene expression from old to young profile,"1430519_a_at CCR4-NOT transcription complex, subunit 7",<60%
same,Effect of resveratrol on changeing gene expression from old to young profile,1430533_a_at catenin beta,80-90%
same,Effect of resveratrol on changeing gene expression from old to young profile,1430536_a_at Mus musculus transcribed sequence with strong similarity to protein prf: 2208314A (H. sapiens) 2208314A ERH gene [Homo sapiens] [BLAST],>100%
same,Effect of resveratrol on changeing gene expression from old to young profile,1430976_a_at mitochondrial ribosomal protein L9,80-90%
same,Effect of resveratrol on changeing gene expression from old to young profile,1430980_a_at eukaryotic translation initiation factor 4A1,>100%
same,Effect of resveratrol on changeing gene expression from old to young profile,1430999_a_at short coiled-coil protein,>100%
same,Effect of resveratrol on changeing gene expression from old to young profile,"1431012_a_at peroxisomal delta3, delta2-enoyl-Coenzyme A isomerase",90-100%
same,Effect of resveratrol on changeing gene expression from old to young profile,1431030_a_at ring finger protein 14,70-80%
same,Effect of resveratrol on changeing gene expression from old to young profile,1431255_at calreticulin 3,>100%
same,Effect of resveratrol on changeing gene expression from old to young profile,"1431345_a_at TATA box binding protein (Tbp)-associated factor, RNA polymerase I, B",70-80%
same,Effect of resveratrol on changeing gene expression from old to young profile,1431431_a_at nitrogen fixation gene 1 (S. cerevisiae),90-100%
same,Effect of resveratrol on changeing gene expression from old to young profile,1431507_a_at synaptojanin 2 binding protein,>100%
same,Effect of resveratrol on changeing gene expression from old to young profile,1431592_a_at SH3-domain kinase binding protein 1,70-80%
same,Effect of resveratrol on changeing gene expression from old to young profile,1431645_a_at guanosine diphosphate (GDP) dissociation inhibitor 3,<60%
same,Effect of resveratrol on changeing gene expression from old to young profile,1431746_a_at ubiquitin-activating enzyme E1C [BLAST],>100%
same,Effect of resveratrol on changeing gene expression from old to young profile,1431962_a_at Stam binding protein,>100%
same,Effect of resveratrol on changeing gene expression from old to young profile,1432016_a_at isocitrate dehydrogenase 3 (NAD+) alpha [BLAST],>100%
same,Effect of resveratrol on changeing gene expression from old to young profile,1432042_a_at smu-1 suppressor of mec-8 and unc-52 homolog (C. elegans),90-100%
same,Effect of resveratrol on changeing gene expression from old to young profile,1432211_a_at f-box only protein 9,60-70%
same,Effect of resveratrol on changeing gene expression from old to young profile,1432344_a_at amyloid beta (A4) precursor-like protein 2,<60%
same,Effect of resveratrol on changeing gene expression from old to young profile,"1432488_a_at splicing factor 3a, subunit 3, 60 kDa",<60%
same,Effect of resveratrol on changeing gene expression from old to young profile,"1433461_at splicing factor 3b, subunit 2",>100%
same,Effect of resveratrol on changeing gene expression from old to young profile,1433539_at COMM domain containing 3,90-100%
same,Effect of resveratrol on changeing gene expression from old to young profile,"1433576_at methionine adenosyltransferase II, alpha",60-70%
same,Effect of resveratrol on changeing gene expression from old to young profile,"1433751_at solute carrier family 39 (zinc transporter), member 10",80-90%
same,Effect of resveratrol on changeing gene expression from old to young profile,"1434008_at Mus musculus, clone IMAGE: 1282676, mRNA",<60%
same,Effect of resveratrol on changeing gene expression from old to young profile,1434044_at hypothetical protein C130032F08,90-100%
same,Effect of resveratrol on changeing gene expression from old to young profile,1434105_at EPM2A (laforin) interacting protein 1,60-70%
same,Effect of resveratrol on changeing gene expression from old to young profile,1434189_at stromal antigen 1,>100%
same,Effect of resveratrol on changeing gene expression from old to young profile,1434254_at hypothetical protein E430025L19,>100%
same,Effect of resveratrol on changeing gene expression from old to young profile,"1434268_at adenosine deaminase, RNA-specific",80-90%
same,Effect of resveratrol on changeing gene expression from old to young profile,1434278_at No description found,60-70%
same,Effect of resveratrol on changeing gene expression from old to young profile,1434302_at No description found,>100%
same,Effect of resveratrol on changeing gene expression from old to young profile,1434416_a_at small optic lobes homolog (Drosophila),>100%
same,Effect of resveratrol on changeing gene expression from old to young profile,1434516_at hypothetical protein 5730458D16,>100%
same,Effect of resveratrol on changeing gene expression from old to young profile,"1434537_at solute carrier organic anion transporter family, member 3a1",80-90%
same,Effect of resveratrol on changeing gene expression from old to young profile,1434548_at tumor differentially expressed 1,70-80%
same,Effect of resveratrol on changeing gene expression from old to young profile,1434560_at KIAA1037 protein,>100%
same,Effect of resveratrol on changeing gene expression from old to young profile,1434580_at ectonucleotide pyrophosphatase/phosphodiesterase 4,60-70%
same,Effect of resveratrol on changeing gene expression from old to young profile,1434652_at Cdc42 binding protein kinase beta,>100%
same,Effect of resveratrol on changeing gene expression from old to young profile,1434815_a_at expressed sequence AI874665,>100%
same,Effect of resveratrol on changeing gene expression from old to young profile,"1434834_at Nck, Ash and phospholipase C binding protein",>100%
same,Effect of resveratrol on changeing gene expression from old to young profile,"1434893_at ATPase, Na+/K+ transporting, alpha 2 polypeptide [BLAST]",>100%
same,Effect of resveratrol on changeing gene expression from old to young profile,1434924_at PHD finger protein 2,>100%
same,Effect of resveratrol on changeing gene expression from old to young profile,1434935_at expressed sequence C79663,70-80%
same,Effect of resveratrol on changeing gene expression from old to young profile,"1434937_at pam, highwire, rpm 1 [BLAST]",80-90%
same,Effect of resveratrol on changeing gene expression from old to young profile,"1435032_at golgi autoantigen, golgin subfamily b, macrogolgin 1",90-100%
same,Effect of resveratrol on changeing gene expression from old to young profile,1435129_at protein tyrosine phosphatase 4a2,70-80%
same,Effect of resveratrol on changeing gene expression from old to young profile,1435140_at insulin degrading enzyme,>100%
same,Effect of resveratrol on changeing gene expression from old to young profile,1435213_at NHL repeat containing 1,>100%
same,Effect of resveratrol on changeing gene expression from old to young profile,1435265_at Mus musculus transcribed sequence with strong similarity to protein sp: P00722 (E. coli) BGAL_ECOLI Beta-galactosidase (Lactase),90-100%
same,Effect of resveratrol on changeing gene expression from old to young profile,1435518_at RAS related protein 1b,80-90%
same,Effect of resveratrol on changeing gene expression from old to young profile,"1435626_a_at homocysteine-inducible, endoplasmic reticulum stress-inducible, ubiquitin-like domain member 1",>100%
same,Effect of resveratrol on changeing gene expression from old to young profile,"1435652_a_at guanine nucleotide binding protein, alpha inhibiting 2",>100%
same,Effect of resveratrol on changeing gene expression from old to young profile,1435679_at optineurin,>100%
same,Effect of resveratrol on changeing gene expression from old to young profile,1435730_at Mus musculus transcribed sequences,>100%
same,Effect of resveratrol on changeing gene expression from old to young profile,1435893_at very low density lipoprotein receptor,>100%

# — US20090247646A1, “USE OF RESVERATROL AND DERIVATIVES THEREOF FOR PROMOTING THE WELLNESS STATE IN MAMMALS” (priority 2006, published 2009)
